A short description of this assay: qHTS Assay for Lipid Storage Modulators in Drosophila S3 Cells.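 On cell number change: cells counted by Cell Tracker Red CMTPX staining in the red channel.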 As to conditions: BODIPY lipid droplet fluorescence, 18-24 h; for cell number change: measured here: cell count max response, cells fed with added oleic acid. A digest of the protocol:
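Laser-scanning cytometry quantifies lipid droplet accumulation (500–530 nm total intensity; droplet/cell object ratio) in oleic acid-fed (400 uM added) Drosophila S3 cells treated with a concentration series. 20 uM Triacsin C defined 100% inhibition.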
Background: Quantitative high-throughput screening tests each substance at several concentrations.

[1] abbreviates: measured here: cell number channel AC50, cells fed with added oleic acid.
The mark [2] stands for this setting: measured here: lipid fluorescence (Fed channel) AC50, cells fed with added oleic acid.

The structures appear in SMILES notation. The list shows a part of the results. These are further read-outs of the screen, such as a control signal, another cell line or another target. No call is given for them. Most of these compounds were active or inconclusive in the main read-out, so they are no random draw. Words in brackets tell the shape of the fitted curve; partial curves, single points and poor fits give uncertain potencies.

A word on the AC50: it is the midpoint of the concentration-response curve, whichever way the signal moves. Low readings indicate activity at low concentration, high ones activity only at high concentration. Turning to `COc1ccc(C(OCC(O)CNCCc2ccccc2)c2ccc(OC)cc2)cc1` (stereo not given), the cell number change was -34.2%. The AC50 under setting [1] is 29.1 µM [falling, single point]. Under setting [2], the AC50 was 25.9 µM [falling, single point].
Regarding `CC/C(=N\NC(=O)CCC(=O)NCc1ccccc1)c1ccc(O)cc1`, the cell number change was -0.12%. Besides, the AC50 under setting [2] was 0.103 µM [falling, full curve, poor fit].
With `O=C(CCN1CCOCC1)N1CCCC(Nc2cccc(F)c2)C1` (stereo not given), the cell number change is -11.6%. Besides, the AC50 under setting [2] was 0.82 µM [falling, full curve, poor fit].
In the case of `Cc1cc(C)c(N)cc1C`, the cell number change amounted to 18.2%. Moreover, under setting [2], the half-maximal activity concentration (AC50) was 11.6 µM [rising, partial curve, poor fit].
Regarding `CCC(C)C(=O)Nc1ccc(OC)cc1[N+](=O)[O-]` (stereo not given), the cell number change turned out to be 2.29%. Further, the AC50 under setting [2] was 0.164 µM [falling, full curve, poor fit].
On to `Nc1c(C(=O)CSc2nnc(-c3ccccc3F)o2)c(=O)[nH]c(=O)n1C1CC1`, for which the cell number change was determined as 38.6%. Moreover, the AC50 under setting [1] is 9.2 µM [rising, partial curve]. For the same compound, the AC50 under setting [2] was 10.3 µM [rising, partial curve].
As to `O=C(C[n+]1cn(C(F)F)c2ccccc21)c1ccc(OC(F)F)cc1`, the cell number change came out at 84.9%. Further, under setting [1], the AC50 is 11.6 µM [rising, partial curve].
On to `COc1ccc(C[C@H]2CN3C(=NC[C@H]3Cc3ccccc3)N2CCNC(=O)CCC2CCCCC2)cc1`, for which the cell number change was -26.6%. The AC50 under setting [2] is 29.1 µM [falling, single point].
`COc1ccc(OC)c(C2CC(=O)OC3=C2C(=O)CC(C)(C)C3)c1` (stereo not given): the cell number change was 49.6%.
On to `Cc1cc(C)c(OCC(=O)OC(C)C(=O)N2CCc3ccccc32)c(C)c1` (stereo not given), for which the cell number change was -6.48%. The AC50 under setting [2] was 0.00461 µM [rising, full curve, poor fit].
Turning to `CCc1noc(C)c1C(=O)N1CCN(S(=O)(=O)c2cccs2)CC1`, the cell number change was 0.427%.
As to `COc1cccc(N2CCCn3c2nc2c3c(=O)n(CCN3CCOCC3)c(=O)n2C)c1`, the cell number change came out at 11.4%.
`CC(OC(=O)C1CSC2(C)CCC(=O)N12)C(=O)Nc1ccc(F)cc1` (stereo not given): the cell number change was -1.87%. Further, under setting [2], the AC50 is 2.31 µM [falling, full curve].
`O=C(C[n+]1ccncc1)c1ccccc1`: the cell number change worked out at 9.12%.
As for `CC(C)(C)c1ccc(S(=O)(=O)N2CCN(CCC#N)CC2)cc1`, the cell number change stood at 2.2%. The AC50 under setting [2] is 18.4 µM [falling, partial curve].
As for `CCOC(=O)c1c(C)nc2sc3c(=O)n(-c4ccc(C(C)=O)cc4)cnc3c2c1-c1ccc(OC)cc1`, the cell number change was -5.8%. For the same compound, the AC50 under setting [2] is 23.1 µM [falling, partial curve].
With `CCSc1nc(O)c(C(c2cccc(OC)c2)c2c(O)nc(SCC)[nH]c2=O)c(=O)[nH]1`, the cell number change amounted to 30.3%. Further, the AC50 under setting [1] is 29.1 µM [rising, partial curve, poor fit].
On to `CCn1cc(S(=O)(=O)NCc2ccc3c(c2)OCO3)cn1`, for which the AC50 under setting [2] is 0.82 µM [falling, single point].
Consider `O=C(COc1ccc(/C=N/NC(=O)c2ccccc2Br)cc1)Nc1ccccc1`, for which the AC50 under setting [2] was 16.4 µM [falling, partial curve].
Turning to `Cc1nnc2c(N3CCN(CCO)CC3)nc3ccccc3n12`, the cell number change is -13.4%. Moreover, the AC50 under setting [2] is 0.651 µM [falling, full curve, poor fit].
Turning to `COc1cccc(NC(=O)Cc2nnc(SCC(=O)NC3=NCCS3)n2C)c1`, the cell number change was -3.95%.
Regarding `COc1ccc(S(=O)(=O)N2CCCC2)cc1NC(=O)c1ccccc1F`, the cell number change was 6.41%. Further, the AC50 under setting [1] is 7.31 µM [rising, single point].
Regarding `Cc1cc(N/N=C/c2ccc(Cl)cc2)nc(NCc2ccccc2)n1`, the cell number change was -71.5%. Moreover, under setting [1], the AC50 was 16.4 µM [falling, partial curve, poor fit]. For the same compound, the AC50 under setting [2] is 9.2 µM [falling, partial curve, poor fit].
Turning to `S=C(Nc1ccc2snnc2c1)N1CCN(c2ccccn2)CC1`, the cell number change amounted to 91%. Moreover, the AC50 under setting [1] is 0.366 µM [rising, full curve]. The AC50 under setting [2] is 0.461 µM [rising, full curve].
In the case of `O=C(Nc1ccccc1)c1ccc(NCC2CCCO2)c([N+](=O)[O-])c1` (stereo not given), the cell number change amounted to 1.08%. Moreover, the AC50 under setting [2] is 6.51 µM [falling, full curve].
On to `O=C(O)C1=C[C@H](c2ccc(F)cc2)C[C@H](OCCCCO)O1`, for which the cell number change came out at 0.637%. The AC50 under setting [2] is 6.51 µM [rising, single point].
As for `N#CC(C(=O)NC1CCCCC1)c1nc2ccccc2nc1N1CCN(c2ccc(F)cc2)CC1` (stereo not given), the cell number change was 37.1%. Moreover, under setting [1], the AC50 was 0.206 µM [rising, full curve]. Besides, the AC50 under setting [2] is 0.00461 µM [rising, full curve, poor fit].
`COc1ccc(N2CCN(S(=O)(=O)c3c(C)[nH]c(C)c3C(=O)N3CCCC3)CC2)cc1`: the cell number change is -15.6%.
The same measure, in the same setting: to `COc1ccc(O)c(/C=N/NC(=O)c2cc(=O)[nH]c3ccccc23)c1` belongs 5.55%; to `Cc1cccc(C(=O)Nc2cccnc2Cl)c1`, 16.2%.
Turning to `Cc1ccc(C)c(-n2c(Cc3cc(=O)[nH]c(=O)[nH]3)nnc2SC(C)C)c1`, the cell number change is -13.7%.
Consider `CCN(CC)C(=O)Cn1cc(C(=O)C(=O)N2CCN(Cc3ccccc3)CC2)c2ccccc21`, for which, under setting [2], the AC50 is 5.8 µM [rising, single point].
Take `CCC(=O)C1CCCN(C(=O)c2ccc(OC3CCN(C(=O)c4cccnc4)CC3)cc2)C1` (stereo not given): the cell number change was -29.2%.
In the case of `COc1cc2nc(SCC(=O)c3ccc(Br)cc3)n3nc(C)nc3c2cc1OC`, the cell number change was -32.6%. Moreover, the AC50 under setting [1] is 18.4 µM [falling, single point]. Also, the AC50 under setting [2] is 29.1 µM [falling, single point].
As for `O=C(OCCOc1ccccc1Cl)c1ccc(-n2cnnn2)cc1`, the cell number change is 16.9%. Under setting [1], the AC50 was 2.31 µM [rising, single point].
As to `O=C(N/N=C\c1ccc(Cl)cc1)C1=NOC2COC3(CCN(c4ccc([N+](=O)[O-])cc4)CC3)OCC12` (stereo not given), the AC50 under setting [2] was 20.6 µM [falling, partial curve, poor fit].
As for `CNC(=O)c1cccc(NC(=O)C(C)c2ccc3cc(OC)ccc3c2)c1` (stereo not given), the cell number change was -18.1%.
As to `N#Cc1c(-c2ccccc2)nc(-c2ccccc2)[nH]c1=O`, the cell number change amounted to 136%. In addition, under setting [1], the AC50 is 14.6 µM [rising, partial curve].
Consider `CCCOc1ccc2oc(=O)c3c(c2c1)CCCN3C(=O)CN1CCCC(C(=O)OCC)C1` (stereo not given), for which the cell number change is -25.8%. Moreover, the AC50 under setting [2] is 4.61 µM [falling, partial curve, poor fit].
As for `C#CCOCCOCCOCCNc1nc(N2CCN(C(=O)CCCCCCCCCCNC(=O)[C@H](CCCCN)n3cc(CCO)nn3)CC2)nc(N2CCN(C(=O)CCCCCCCCCCNC(=O)[C@H](CCCCN)n3cc(CCO)nn3)CC2)n1`, the cell number change is -7.13%. For the same compound, under setting [1], the AC50 was 0.103 µM [falling, full curve, poor fit]. Under setting [2], the AC50 is 0.092 µM [falling, full curve, poor fit].
Turning to `COc1ccc(CNC(=O)CN(CC2CCCO2)C(=O)CNS(=O)(=O)c2ccc(C)cc2)cc1` (stereo not given), the cell number change was found to be 34%. For the same compound, the AC50 under setting [1] is 0.58 µM [rising, full curve, poor fit].
As for `O=C(N/N=C/c1cccc2cccnc12)c1ccccc1O`, the cell number change was -22.1%. Besides, the AC50 under setting [2] is 0.731 µM [falling, full curve].
As to `COC(=O)CN1C(=O)C(C)(C)Oc2ccc(C(=O)NC3CCCC3)cc21`, the cell number change is -2.7%. Also, under setting [2], the AC50 was 29.1 µM [rising, single point].
`COC(=O)Oc1ccc(/C=N/NC(=O)CSCc2ccccc2Br)cc1OC`: the cell number change amounted to 14.1%. For the same compound, the half-maximal activity concentration (AC50) under setting [2] is 3.26 µM [rising, partial curve].
On to `O=C(O)C1C2CCC(C2)C1C(=O)NCCc1ccc(F)cc1` (stereo not given), for which the cell number change worked out at 3.97%. For the same compound, the AC50 under setting [2] is 3.66 µM [rising, full curve].
On to `CCCCC(=O)Nc1ccc(NC(=S)NC(=O)CC)cc1OC`, for which the cell number change is 17.2%. For the same compound, the AC50 under setting [2] was 29.1 µM [rising, single point].
Consider `Cc1csc(SCC(=O)Nc2nc(-c3ccccc3)cs2)n1`, for which, under setting [1], the AC50 was 0.13 µM [rising, full curve, poor fit].
With `COc1ccc(CC2(C)OC(c3ccc(Cl)cc3)=NN2C(C)=O)cc1` (stereo not given), the cell number change was -4.03%.
As for `COc1cccc(CN2C(=O)c3ccccc3C2C(=O)NCC2CCCO2)c1` (stereo not given), the cell number change amounted to 77.5%. Moreover, the AC50 under setting [1] is 18.4 µM [rising, partial curve]. Besides, the AC50 under setting [2] was 29.1 µM [rising, single point].
With `O=C(COC(=O)c1cccc(S(=O)(=O)N2CCCCC2)c1)NC1CCCCC1`, the cell number change is -14.4%. Under setting [2], the AC50 is 0.92 µM [falling, full curve].
On to `COc1ccc(CC(=O)OCC(=O)c2ccc[nH]2)cc1`, for which the cell number change was -14.8%. The AC50 under setting [2] was 6.51 µM [rising, single point].
For `O=C(CCCn1c(=O)[nH]c2ccsc2c1=O)N1CCCCC1`, the AC50 under setting [2] is 18.4 µM [falling, partial curve].
Take `Cc1ccc(C(=O)CCC(=O)Nc2ccc(Cl)c(S(=O)(=O)Nc3cccc(Cl)c3)c2)cc1`: the cell number change was 14.3%.
On to `CCC1CCCCN1S(=O)(=O)c1ccc(NC(=O)c2ccncc2)cc1` (stereo not given), for which the cell number change was -43.4%. Under setting [1], the AC50 is 4.61 µM [falling, single point].
With `CC(C)Oc1ccc(/C(O)=C2/C(=O)C(=O)N(CCN(C)C)C2c2ccco2)cc1` (stereo not given), the cell number change is -16.4%. Further, the AC50 under setting [2] is 3.66 µM [falling, partial curve].
On to `Cc1ccc(S(=O)(=O)N2CCC(C(=O)NC3CCCCC3C)CC2)cc1` (stereo not given), for which the cell number change was -4.7%.
For `CCc1ccc(Nc2ccc(S(=O)(=O)N3CCOCC3)cc2[N+](=O)[O-])cc1`, the cell number change is -40.1%. Moreover, the AC50 under setting [1] is 29.1 µM [falling, single point]. Moreover, under setting [2], the AC50 is 18.4 µM [falling, single point].
Regarding `O=C(NCCn1cccn1)c1ccc(OC2CCN(C(=O)C3CC3)CC2)cc1`, the cell number change stood at 8%. Further, the AC50 under setting [2] is 6.51 µM [falling, single point].
With `COc1ccc(OC)c(NC(=O)c2ccc(N3C(=O)C4CC=C(C)CC4C3=O)cc2)c1` (stereo not given), the cell number change amounted to 6.31%. The AC50 under setting [2] was 29.1 µM [rising, single point].
Take `Cc1c(NC(=O)c2cc(-c3ccc(O)cc3)on2)c(=O)n(-c2ccccc2)n1C`: the cell number change is -1.28%.
Turning to `CCn1c(=O)c(C(=O)NCCNCCO)c(O)c2ccccc21`, the cell number change is -3.07%. The AC50 under setting [2] is 2.31 µM [rising, partial curve].

(Values after PubChem BioAssay AID2685 (National Center for Advancing Translational Sciences (NCATS), 2010).)
